For one substance, binding results are on record in publication PMC3282682.

Sequences of proteins named here, by UniProt entry; tags and fusion partners are left off.
UniProt Q02159: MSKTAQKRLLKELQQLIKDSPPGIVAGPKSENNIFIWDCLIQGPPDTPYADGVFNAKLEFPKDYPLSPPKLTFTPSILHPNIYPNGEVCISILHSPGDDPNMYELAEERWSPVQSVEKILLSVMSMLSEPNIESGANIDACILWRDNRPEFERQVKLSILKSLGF

The target in the assay is T1, Pof1p, promoter of filamentation (POF1) protein from Saccharomyces cerevisiae (S. cerevisiae (endogenous in BY4741)) (UniProt P25576).
T1 sequence: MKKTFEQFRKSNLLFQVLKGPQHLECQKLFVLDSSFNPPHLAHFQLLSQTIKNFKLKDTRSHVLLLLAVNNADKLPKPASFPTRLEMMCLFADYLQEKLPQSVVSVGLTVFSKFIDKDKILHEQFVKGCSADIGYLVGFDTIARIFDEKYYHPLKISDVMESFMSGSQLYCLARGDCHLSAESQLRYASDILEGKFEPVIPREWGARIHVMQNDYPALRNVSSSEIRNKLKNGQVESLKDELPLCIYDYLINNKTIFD
As to the kind of experiment: co-IP; soluble extracts of wild type, Δpct1 and Δpof1 cells (stationary phase, synthetic galactose complete medium) incubated with Dynabead-anti-Pof1p complex overnight at room temperature; lysis buffer 50 mM Hepes pH 7.5, 5 mM EDTA, 150 mM NaCl, 300 mM KCl, 1% Triton X-100, 20 mM β-mercaptoethanol; eluate with 1 mM DTT, Western blot for Ubc7p. (Immunoblotting shows a protein as a band on a membrane.)

No constants are given. Whether binding was seen depends on the method and setting. Binding seen in cells or lysates may run through a third protein. Some entries that bind do so weakly or less than the wild type. Where a sequence is shown, tags or fusion partners need not be part of it.

With “Ubc7p (ubiquitin conjugating enzyme, ubiquitin conjugase 7) (from UniProt Q02159 1-165)”, the binding entry is reported as “binds”.
